Source: PMC3591284
These are yes or no findings as the source states them, for the method shown. In cells and extracts the contact can be indirect. These calls come from enrichment with a bait or labelling near it, and not all partners need be listed.

Amino acid sequences for entries named in this document (tags omitted).
UniProt Q12873: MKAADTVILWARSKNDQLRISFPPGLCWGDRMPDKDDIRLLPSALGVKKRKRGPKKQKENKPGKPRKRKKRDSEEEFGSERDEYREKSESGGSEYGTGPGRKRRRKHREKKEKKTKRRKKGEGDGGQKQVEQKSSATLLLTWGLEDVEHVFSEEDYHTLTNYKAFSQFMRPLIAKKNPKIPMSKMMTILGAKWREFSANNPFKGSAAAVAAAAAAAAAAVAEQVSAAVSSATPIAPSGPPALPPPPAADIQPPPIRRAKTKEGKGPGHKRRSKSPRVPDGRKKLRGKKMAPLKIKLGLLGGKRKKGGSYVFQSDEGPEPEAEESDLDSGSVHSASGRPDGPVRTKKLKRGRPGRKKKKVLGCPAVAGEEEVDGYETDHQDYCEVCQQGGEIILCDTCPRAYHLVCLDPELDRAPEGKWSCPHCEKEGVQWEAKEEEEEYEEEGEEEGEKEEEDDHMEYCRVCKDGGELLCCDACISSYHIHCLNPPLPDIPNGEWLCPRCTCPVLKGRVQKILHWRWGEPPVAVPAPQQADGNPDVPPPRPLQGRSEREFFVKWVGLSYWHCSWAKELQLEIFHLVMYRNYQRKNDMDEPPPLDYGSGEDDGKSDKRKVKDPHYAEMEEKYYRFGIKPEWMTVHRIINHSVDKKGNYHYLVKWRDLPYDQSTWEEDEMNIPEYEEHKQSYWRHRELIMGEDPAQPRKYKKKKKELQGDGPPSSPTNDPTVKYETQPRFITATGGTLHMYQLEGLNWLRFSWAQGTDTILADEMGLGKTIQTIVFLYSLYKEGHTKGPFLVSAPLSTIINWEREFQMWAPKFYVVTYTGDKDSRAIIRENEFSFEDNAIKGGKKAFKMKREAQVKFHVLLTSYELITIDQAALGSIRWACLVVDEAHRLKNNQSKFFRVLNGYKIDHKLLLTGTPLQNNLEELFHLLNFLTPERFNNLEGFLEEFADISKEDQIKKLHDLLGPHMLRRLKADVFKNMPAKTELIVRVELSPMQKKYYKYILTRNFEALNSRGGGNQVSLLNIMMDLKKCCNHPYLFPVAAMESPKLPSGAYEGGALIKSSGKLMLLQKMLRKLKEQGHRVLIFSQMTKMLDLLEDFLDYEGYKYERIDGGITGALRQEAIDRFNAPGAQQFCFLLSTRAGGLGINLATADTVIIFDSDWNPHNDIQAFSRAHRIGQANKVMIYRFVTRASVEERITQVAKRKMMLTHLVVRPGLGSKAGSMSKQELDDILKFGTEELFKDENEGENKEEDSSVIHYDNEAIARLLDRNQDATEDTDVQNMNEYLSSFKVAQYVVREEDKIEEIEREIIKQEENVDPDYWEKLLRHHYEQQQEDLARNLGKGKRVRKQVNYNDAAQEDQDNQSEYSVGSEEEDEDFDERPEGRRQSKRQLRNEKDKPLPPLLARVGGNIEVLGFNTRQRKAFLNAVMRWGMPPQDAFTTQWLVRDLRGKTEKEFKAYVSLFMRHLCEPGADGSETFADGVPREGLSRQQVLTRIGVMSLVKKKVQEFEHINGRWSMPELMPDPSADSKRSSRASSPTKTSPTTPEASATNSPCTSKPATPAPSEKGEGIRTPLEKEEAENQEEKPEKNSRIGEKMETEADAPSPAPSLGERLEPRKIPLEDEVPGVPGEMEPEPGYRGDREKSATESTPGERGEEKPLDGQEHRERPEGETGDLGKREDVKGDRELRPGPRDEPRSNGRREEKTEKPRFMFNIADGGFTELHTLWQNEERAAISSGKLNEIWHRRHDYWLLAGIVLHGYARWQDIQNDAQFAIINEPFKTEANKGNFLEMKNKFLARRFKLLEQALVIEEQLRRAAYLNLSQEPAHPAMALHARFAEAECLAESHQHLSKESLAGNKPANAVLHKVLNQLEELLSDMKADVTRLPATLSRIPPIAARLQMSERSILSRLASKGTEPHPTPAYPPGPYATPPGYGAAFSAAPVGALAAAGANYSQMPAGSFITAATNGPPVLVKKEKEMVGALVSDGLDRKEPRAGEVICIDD

Target: T1, Protein arginine methyltransferase 4 (PRMT4), endogenous in HEK293 cells (human (endogenous in HEK293)) (UniProt Q86X55)
T1 sequence: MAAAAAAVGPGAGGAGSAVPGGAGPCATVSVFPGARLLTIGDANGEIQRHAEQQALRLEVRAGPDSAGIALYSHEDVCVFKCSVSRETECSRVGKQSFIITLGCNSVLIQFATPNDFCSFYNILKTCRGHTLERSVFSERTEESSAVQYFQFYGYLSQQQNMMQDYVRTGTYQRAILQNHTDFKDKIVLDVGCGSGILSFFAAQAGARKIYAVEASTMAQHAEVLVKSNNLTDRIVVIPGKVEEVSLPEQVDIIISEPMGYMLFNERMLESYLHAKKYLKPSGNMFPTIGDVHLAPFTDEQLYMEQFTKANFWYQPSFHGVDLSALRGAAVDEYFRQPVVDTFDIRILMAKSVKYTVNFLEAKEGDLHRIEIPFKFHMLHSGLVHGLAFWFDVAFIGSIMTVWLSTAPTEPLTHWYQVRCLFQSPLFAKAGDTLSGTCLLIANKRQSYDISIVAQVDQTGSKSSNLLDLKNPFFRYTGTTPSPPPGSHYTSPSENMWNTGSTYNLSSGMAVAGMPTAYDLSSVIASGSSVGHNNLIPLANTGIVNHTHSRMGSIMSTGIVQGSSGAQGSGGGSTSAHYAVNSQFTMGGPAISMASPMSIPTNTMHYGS
Assay: affinity purification with mass spectrometry; IP with polyclonal anti-PRMT4 antibodies from PRMT4-containing MonoQ fractions of HEK293 extract against a bead control; silver-stained bands excised, MALDI-TOF peptide mass fingerprint

binding: binds
Substance: Mi2α, endogenous in HEK293 cells (from UniProt Q12873 1-2000) (enzyme)
